These are yes or no findings as the source states them, for the method shown. In cells and extracts the contact can be indirect. These calls come from enrichment with a bait or labelling near it, and not all partners need be listed.
Target: T1, Aquaporin-1 purified from rat red blood cells (rat) (UniProt P29975)
T1 sequence: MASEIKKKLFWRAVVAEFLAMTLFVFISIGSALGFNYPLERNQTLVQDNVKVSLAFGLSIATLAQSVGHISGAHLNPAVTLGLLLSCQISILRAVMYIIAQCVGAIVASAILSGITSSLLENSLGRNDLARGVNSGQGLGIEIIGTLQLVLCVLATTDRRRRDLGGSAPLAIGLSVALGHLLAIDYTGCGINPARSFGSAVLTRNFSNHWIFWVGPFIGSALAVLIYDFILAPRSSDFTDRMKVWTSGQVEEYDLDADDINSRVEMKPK
Experiment: SPR + affinity purification with mass spectrometry; purified rat AQP1 amine-coupled on a CM5 chip (Biacore 3000); diluted rat kidney extract injected (200 uL, 20 uL/min, HBS-EP running buffer); bound protein recovered by the RECOVERY program (eluted with 0.1% TFA) and identified by MALDI-TOF/MS (Mascot, MSDB); only the target purified

How did the binding turn out when “Myosin heavy chain, endogenous in rat kidney” was run?
The binding was “binds”.

Source: publication PMC3448731
